Experimental data as given in article PMC10531095, “Photonics of Some Monomethine Cyanine Dyes in Solutions and in Complexes with Biomolecules” (International Journal of Molecular Sciences, 2023).

Legend:
dsDNA [1] = assay: Spectral fluorescent titration of the dyes with dsDNA in PBS; type: binding, chick; conditions: for εf/εb, relative change in molar extinction coefficient on complexation: PBS buffer
From the text: (§1) Complexation of MCD 1–4 with DNA (double-stranded and single-stranded) and with human serum albumin (HSA) was studied by spectral fluorescent methods in a wide range of biopolymer concentrations (cdsDNA = 0–1.5 × 10^−4 mol L^−1; cssDNA = 0–1.4 × 10^−4 mol L^−1; cHSA = 0–1.4 × 10^−4 mol L^−1 in PBS buffer). The absorption, fluorescence, and fluorescence excitation spectra of MCD 1 and 3 in the presence of dsDNA are shown in Figure 3 and Figure 4, respectively.
(§2) The complication of chemical equilibrium, and the variety of interactions between MCD and biopolymer (dye aggregation/deaggregation, the possibility of forming complexes of several types with DNA/HSA) makes it problematic to determine the exact values of the complexation constants of the dyes with DNA. The values of the effective equilibrium constants of the complexation reaction of MCD with biopolymers (Keff, L mol^−1, see Table 7) were estimated from spectral fluorescent data. In this case, we had to assume a simple equilibrium MCD (monomer, free) ⇄ MCD (monomer, bound). For these purposes, we used the Benesi–Hildebrand [59], Hill, and Scatchard formalisms (See Supplementary Materials, Equations (S9)–(S13)). For dsDNA, fitting according to the modified Scatchard equation was carried out assuming one dye molecule per one DNA turn (K1Sc at nSc = const = 10 b.p.), as well as varying both the constant (K2Sc) and the stoichiometric coefficient (nSc). In the case of ssDNA, nSc is given per one base; for HSA, nSc = 1.
Single-stranded form of DNA (single-stranded DNA; ssDNA) was obtained according to the method described in [74]. The concentrations of DNA and the dyes were controlled spectrophotometrically. Molar extinction coefficient of dsDNA (ε, L⋅mol^−1⋅cm^−1) was taken to be 13,200 L mol^−1 cm^−1 (per base pair); for ssDNA, ε = 9045 L mol^−1 cm^−1 (per one base) was used. For MCD 1 and 2 in an aqueous buffer solution, we used extinction coefficients ε = 40,000 and 68,000 L mol^−1 cm^−1, respectively, which were taken from. For MCD 3 and 4, the molar extinction coefficients in ethanol solution were 69,200 and 49,000 L mol^−1 cm^−1 (taken from). […] Spectral fluorescent characteristics of MCD in complexes with biomacromolecules were studied by titration of dye solutions (see Supplementary Materials). The thermal dissociation (“melting”) of dsDNA in the presence of MCD was studied spectrophotometrically (λabs = 260 nm), the sample was heated (t° = 30–95 °C) using Peltier cells, and the temperature was controlled using a thermocouple. Melting points tm, corresponding to 50% hyperchromia of DNA samples were obtained.
Absorption spectra were recorded on an SF-2000 spectrophotometer (Experimental-Construction Company “Spectrum”, St. Petersburg, Russia); fluorescence and fluorescence excitation spectra were recorded on a Fluorat-02-Panorama spectrofluorimeter (Group of Companies “Lumex”, St. Petersburg, Russia). The fluorescence and fluorescence excitation spectra were corrected for the spectral characteristics of the instrument (excitation channel signal) and sample transmission. Changes in the intrinsic fluorescence of HSA upon binding of MCD (in the presence of the dyes) were recorded in the synchronous fluorescence scanning (SFS) mode. In SFS mode, when registering spectra, a fixed difference Δλ= λfl − λex is maintained for the channels of excitation and registration. Synchronous scanning spectra were obtained at Δλ = 15 nm (fluorescence of tyrosine residues in the HSA molecule) and Δλ = 60 nm (fluorescence of tryptophan). The spectra were measured in 1 cm quartz semi-micro cells (Bio-Rad, Hercules, CA, USA).
The equilibrium constants of MCD complexation with biomolecules (Ka, L mol^−1) were obtained from fluorescence spectra using the Benesi–Hildebrand [59], Hill, and Scatchard equations [61] (see Supplementary Materials, Equations (S9)–(S13)). […]

dsDNA [2] = assay: Flash photolysis: triplet state of MCD in the presence of dsDNA; parameters: species or system chick; conditions: for ΦST, quantum yield of intersystem crossing to the triplet state: optical actinometry
From the text: Upon direct flash photoexcitation of deoxygenated solutions of MCD 1–4, signals corresponding to triplet–triplet (T–T) absorption were not observed due to the low efficiency of intersystem crossing to the triplet (T) state, in comparison with competing processes of nonradiative deactivation of excited states of dye molecules, which is common for MCD [41]. Complexation with dsDNA hinders these competing processes, which leads to an increase in the quantum yield of the T state of MCD. In the presence of dsDNA, under direct photoexcitation, the signals of T states of MCD 1–3 were detected, and their different T–T absorption spectra were measured (Figure 10).
Quantum yields of intersystem crossing to the triplet state (ΦST) of MCD 1–3 in the presence of dsDNA were estimated by flash photolysis using optical actinometry (see Materials and Methods). The obtained values of ΦST for MCD 1–3 were 2.6 ± 0.4%, 5.7 ± 0.8%, and 10.7 ± 1.5%, respectively.
The spectral–kinetic characteristics of the T state of MCD were studied by flash photolysis. The experiment was carried out on a setup with excitation by a xenon lamp (lamp flash energy ~50 J, duration τ1/2 = 10 μs). When registering T states, the solutions were deoxygenated using a vacuum setup. The manometric unit was used to determine the air pressure in a series of experiments on T state quenching by dissolved oxygen. The T state of MCD 4 in PBS solution in the presence of dsDNA was obtained by energy transfer from the triplet level of sodium naphthalene-2-sulfonate (ET~21,000 cm^−1 [83]). The quantum yields of T states (ΦT) of the dyes in the presence of dsDNA were estimated actinometrically. Dyes with known ΦT were used as actinometers: the xanthene dye Acid Red 87 (ΦT = 0.8 (aq); [84]) and the cyanine dye 3,3′-diethyl-9-methoxythiacarbocyanine iodide (ΦT = 0.16–0.20 in n-propanol; [85]).

ssDNA = assay: Spectral fluorescent titration of the dyes with ssDNA in PBS; type: binding, chick; conditions: for εf/εb, relative change in molar extinction coefficient on complexation: PBS buffer
From the text: as §1, §2
Single-stranded form of DNA (single-stranded DNA; ssDNA) was obtained according to the method described in [74]. The concentrations of DNA and the dyes were controlled spectrophotometrically. Molar extinction coefficient of dsDNA (ε, L⋅mol^−1⋅cm^−1) was taken to be 13,200 L mol^−1 cm^−1 (per base pair); for ssDNA, ε = 9045 L mol^−1 cm^−1 (per one base) was used. For MCD 1 and 2 in an aqueous buffer solution, we used extinction coefficients ε = 40,000 and 68,000 L mol^−1 cm^−1, respectively, which were taken from. For MCD 3 and 4, the molar extinction coefficients in ethanol solution were 69,200 and 49,000 L mol^−1 cm^−1 (taken from). […] Spectral fluorescent characteristics of MCD in complexes with biomacromolecules were studied by titration of dye solutions (see Supplementary Materials). […]
Absorption spectra were recorded on an SF-2000 spectrophotometer (Experimental-Construction Company “Spectrum”, St. Petersburg, Russia); fluorescence and fluorescence excitation spectra were recorded on a Fluorat-02-Panorama spectrofluorimeter (Group of Companies “Lumex”, St. Petersburg, Russia). The fluorescence and fluorescence excitation spectra were corrected for the spectral characteristics of the instrument (excitation channel signal) and sample transmission. Changes in the intrinsic fluorescence of HSA upon binding of MCD (in the presence of the dyes) were recorded in the synchronous fluorescence scanning (SFS) mode. […] Synchronous scanning spectra were obtained at Δλ = 15 nm (fluorescence of tyrosine residues in the HSA molecule) and Δλ = 60 nm (fluorescence of tryptophan). The spectra were measured in 1 cm quartz semi-micro cells (Bio-Rad, Hercules, CA, USA).
The equilibrium constants of MCD complexation with biomolecules (Ka, L mol^−1) were obtained from fluorescence spectra using the Benesi–Hildebrand [59], Hill, and Scatchard equations [61] […]

CC[N+](CC)(CC)CCC[n+]1ccc(/C=C2\Sc3ccccc3N2C)c2ccc(O)cc21 [MCD 1]
LR, linear portion of fluorescence intensity vs. concentration plot (dsDNA [1]): 0 to 3 µmol/L
εf/εb, relative change in molar extinction coefficient on complexation (dsDNA [1]): 1.05
ΦST, quantum yield of intersystem crossing to the triplet state (dsDNA [2]): 2.6 ± 0.4%
LR, linear portion of fluorescence intensity vs. concentration plot (ssDNA): 0 to 3.5 µmol/L
εf/εb, relative change in molar extinction coefficient on complexation (ssDNA): 1.73

CCN1/C(=C/c2ccc3ccccc3[n+]2CC)C=Cc2ccccc21 [MCD 4]
LR, linear portion of fluorescence intensity vs. concentration plot (dsDNA [1]): 1.5–13 ^2 µmol L^−1
εf/εb, relative change in molar extinction coefficient on complexation (dsDNA [1]): 1.83
signal of the T state upon direct photoexcitation (dsDNA [2]): not detected
LR, linear portion of fluorescence intensity vs. concentration plot (ssDNA): 1–140 ^2 µmol L^−1

CCN1/C(=C/c2sc3ccccc3[n+]2CC)Sc2ccccc21 [MCD 3]
LR, linear portion of fluorescence intensity vs. concentration plot (dsDNA [1]): 0 to 25 µmol/L
εf/εb, relative change in molar extinction coefficient on complexation (dsDNA [1]): 3.90
ΦST, quantum yield of intersystem crossing to the triplet state (dsDNA [2]): 10.7 ± 1.5%
LR, linear portion of fluorescence intensity vs. concentration plot (ssDNA): 0 to 10 µmol/L
εf/εb, relative change in molar extinction coefficient on complexation (ssDNA): 2.88
